# Where “and” joins values, the source holds several entries; their conditions need not be identical. Identical values can stand only once. Out of some 300,000 compounds screened, about 5,400 (1.8%) were called active. This list was built around the results that the source calls inconclusive (neither active nor inactive); the mix of calls is not that of the screen. The call rests on the fitted dose curve; tested in HEK293 cells. Potencies beside an inconclusive call are fits to weak or partial responses and may not hold up.
# Assay: qHTS for inhibitors of binding or entry into cells for Marburg Virus
# Settings: Marburg virus pseudotyped entry inhibition, cell reporter; activity change, negative = inhibition: at 37.8 µM (top of the series) unless noted
# On the % scale 0 is the no-effect control and ±100 the full control effect; potency means the concentration at half of the fitted maximal effect.
SMILES,Potency,"activity change, negative = inhibition"
Cc1ccc(-c2nnc(SCC(=O)NCC3CCCO3)nc2-c2ccc(C)cc2)cc1 (centres undefined),"inconclusive: 1 µM [inhibitor, partial curve, poor fit]",–
O=C(Nc1ccc(C(F)(F)F)cc1)c1ccccc1Br,–,inactive: 12.5% [at 46.1 µM]
CNS(=O)(=O)c1cccc(C(=O)OCC(=O)Nc2nc(OC)cc(OC)n2)c1,"inconclusive: 4.47 µM [inhibitor, full curve, poor fit]",–
N#Cc1ccc(Oc2ccc(-c3cnc4ccccc4n3)cc2)cc1C#N,"inconclusive: 17.8 µM [activator, single point]",–
O=C1c2ccc3c4c(ccc(c24)C(=O)N1c1cccc(O)c1)CC3,–,inactive: -28.3%
C/C1=C\CCC2C(/C=C(\C)CC1)OC(=O)C2CN1CCCCC1 (centres undefined),"inconclusive: 35.5 µM [inhibitor, single point]",–
O=C(CNc1ccc2c(c1)OCO2)N/N=C\c1ccccc1Cl,–,inactive: 17.9%
CCOc1ccccc1CNc1nc2nc(C)cc(C)n2n1,–,inactive: 1.6% [at 46.1 µM]
CCCn1c(C)nc2c(c1=O)c1nc3ccccc3nc1n2CCC1=CCCCC1,active: 23.1 µM,–
CC(C)c1ccc(OCC(=O)Nc2cccc3c2CCCC3)cc1,"inconclusive: 20 µM [inhibitor, single point]",–
O=C(NCC(=O)N1CCN(c2ncccn2)CC1)c1cccs1,"inconclusive: 18.3 µM [activator, partial curve, poor fit]",–
C=CCc1ccc(OCCOCCOc2ccc(C)cc2[N+](=O)[O-])c(OC)c1,"inconclusive: 31.6 µM [activator, single point]",–
CN1CCN(c2ccc(NC(=S)NC(=O)/C=C/c3ccco3)cc2)CC1,"inconclusive: 17.8 µM [inhibitor, single point]",–
Cc1ccc(CCNc2ccc3ccccc3c2)cn1,"inconclusive: 22.4 µM [inhibitor, single point]",–
CC(=O)NC1CCCc2c1cnn2-c1ccc(C(C)(C)C)cc1 (centres undefined),–,inactive: 7.33%
CCCCOC(=O)c1ccc(NC(=O)/C=C/c2cccs2)cc1,–,inactive: -23.8%
CCOc1ccc(-n2c(COc3ccc(C)cc3)nnc2SCC(N)=O)cc1,"inconclusive: 8.2 µM [activator, partial curve, poor fit]",–
COc1cc(NC(=O)CN2C(=O)NC(C)(CCC(C)C)C2=O)cc(OC)c1 (centres undefined),"inconclusive: 35.5 µM [inhibitor, single point]",–
Cc1cc(-c2ccccc2)nc(N2CCC(C(=O)NC(C)C)CC2)n1,"inconclusive: 29.1 µM [inhibitor, single point]",–
COc1ccc(NC(=O)c2cccs2)cc1O,–,inactive: 21.2%
Cc1ccc(C(C)C)c(OC(C)C(=O)NCC2(N(C)C)CCCCC2)c1 (centres undefined),"inconclusive: 11.2 µM [inhibitor, partial curve, poor fit]",–
CCN(CC)CCN(C)C(=O)CCc1nnc(-c2ccc(C)s2)o1,–,inactive: 14.4% [at 46.1 µM]
NS(=O)(=O)c1ccc(CCNC(=O)CN2CCN(c3ccccc3F)CC2)cc1,"inconclusive: 0.282 µM [activator, full curve, poor fit]",–

SMILES,Potency,"activity change, negative = inhibition"
Cc1cc(=O)oc2c3c(cc(OCC(=O)NC(C)C)c12)OC(C)(C)CC3,"inconclusive: 3.98 µM [activator, partial curve]",–
CC1(C)CC(=O)C2=C(C1)NC(SCC(=O)Nc1ccccc1)=C(C#N)C2c1ccco1 (centres undefined),active: 14.1 µM,–
O=C(c1cc2nc(-c3ccco3)cc(C(F)(F)F)n2n1)N1CCN(c2ccc(F)cc2)CC1,"inconclusive: 14.6 µM [inhibitor, partial curve, poor fit]",–
Cc1cc(C)nc(SCC(=O)N2CCC(C(N)=O)CC2)n1,–,inactive: 21.7%
O=c1c2cc(Br)ccc2nc(-c2cccc(Cl)c2)n1O,"inconclusive: 17.8 µM [inhibitor, single point]",–
COc1cc(-c2nnc(SCCOc3cc(C)cc(C)c3)o2)cc(OC)c1OC,–,inactive: -3.31% [at 46.1 µM]
COCCn1nnnc1C(C(C)C)N1CCN(C(=O)c2ccco2)CC1 (centres undefined),"inconclusive: 35.5 µM [inhibitor, partial curve, poor fit]",–
CN(CC(=O)NCCN1CCOCC1)S(=O)(=O)c1ccc(Cl)cc1,"inconclusive: 1.78 µM [inhibitor, partial curve, poor fit]",–
Cc1ccc(NC(=O)COC(=O)c2ccc([N+](=O)[O-])o2)cc1S(=O)(=O)N1CCCCCC1,"inconclusive: 3.55 µM [inhibitor, single point]",–
CC1CCN(C(=O)COC(=O)c2ccc(Br)o2)CC1,–,inactive: 9.77%
COC(=O)c1ccc(C2Nc3ccc(/C(C)=N/NC(=O)C(OC)c4ccccc4)cc3C3C=CCC32)cc1 (centres undefined),inactive,–
C/C(=N\OCC(=O)Nc1ccc(F)c(F)c1F)c1cc2ccccc2o1,–,inactive: 12.4%
Cc1cc(/C=C2/NC(=O)N(c3ccccc3)C2=O)c(C)n1-c1cccnc1,"inconclusive: 35.5 µM [inhibitor, single point]",–
CCc1cc2c(=O)n(Cc3ccco3)c(SCC(=O)NC3CCS(=O)(=O)C3)nc2s1 (centres undefined),–,inactive: 3.43% [at 46.1 µM]
CC12CCC(=O)N1C(C(=O)NCCN1C(=O)S/C(=C\c3ccc(F)cc3)C1=O)CS2 (centres undefined),–,inactive: 16%
CCOC(=O)c1c2c3c(cccc3n(C)c1=O)C(=O)c1ccccc1-2,"inconclusive: 17.8 µM [inhibitor, single point]",–
Clc1ccc(-c2cnc(Oc3ccccc3)nc2)cc1,"inconclusive: 0.631 µM [activator, full curve]",–
Cc1sc(=NC(=O)c2ccco2)n(C)c1-c1ccc(Cl)cc1,–,inactive: 4.18%
COc1ccc(/C=N/Nc2ccc([N+](=O)[O-])cc2)cc1O,–,inactive: 9.17% [at 46.1 µM]
O=C(Nc1ccccc1)NC1CCCCC1,–,inactive: 11.7%
Cc1cccc(NCc2ccc(Br)cc2)n1,"inconclusive: 4.47 µM [inhibitor, partial curve, poor fit]",–
CC(C)c1ccc2oc(-c3ccc(N)cc3)nc2c1,"inconclusive: 0.326 µM [activator, partial curve]",–
O=C(CSc1nnc(-c2ccc3c(c2)OCO3)o1)Nc1ncc(C(F)(F)F)cc1Cl,"inconclusive: 35.5 µM [activator, single point]",–

SMILES,Potency,"activity change, negative = inhibition"
CCOC(=O)c1c(C)[nH]c(C(=O)COC(=O)C2CC2)c1C,–,inactive: 10.5% [at 46.1 µM]
CC1CCN(CC(=O)Nc2ccc(S(=O)(=O)N3CCC(C)CC3)cc2)CC1,"inconclusive: 35.5 µM [inhibitor, single point]",–
CCN(Cc1ccccc1)C(c1cc2cc(C)cc(C)c2[nH]c1=O)c1nnnn1CCOC (centres undefined),"inconclusive: 3.16 µM [inhibitor, full curve, poor fit]",–
COC(=O)c1cc(-n2cccc2)ccc1N1CCOCC1,–,inactive: -0.663%
COc1ccccc1NC(=O)c1c(C)cc(C)nc1SCC(=O)c1ccc(Cl)cc1,"inconclusive: 4.47 µM [inhibitor, single point]",–
CCOc1ccc(CN(CCCl)CCCl)cc1C(=O)OC,"inconclusive: 29.1 µM [inhibitor, single point]",–
CCOc1ccc(-c2nc(CN(Cc3ccccc3)C[C@@H]3CCC(=O)N3)c(C)o2)cc1,"inconclusive: 17.8 µM [inhibitor, single point]",–
CN(C)c1nc2c(Br)c(Br)c(Br)c(Br)c2[nH]1,"inconclusive: 7.08 µM [inhibitor, partial curve] and inconclusive: 6.51 µM [inhibitor, partial curve, poor fit]",–
Cc1csc(=O)n1CC(=O)OCC(=O)Nc1cc([N+](=O)[O-])ccc1Cl,"inconclusive: 22.4 µM [activator, single point]",–
Cc1cc(C)n(CCC(=O)N2CCN(S(=O)(=O)c3ccc(C)c(C)c3)CC2)n1,"inconclusive: 7.08 µM [activator, partial curve]",–
CC(/C=C/c1ccccc1)=N\NC(=O)c1ccc2c(c1)OCCO2,"inconclusive: 0.199 µM [activator, full curve, poor fit]",–
O=C1Nc2ccc(S(=O)(=O)N3CCCC3)c3ccc(S(=O)(=O)N4CCCC4)c1c23,–,inactive: 2.5%
Cc1cccc(CCNC(=O)c2cccc3c2C(=O)N(C2CCCCC2)C3)c1,"inconclusive: 0.794 µM [inhibitor, partial curve, poor fit]",–
CCN1CCN(c2ccc(S(=O)(=O)N3CCCCC3)cc2NC(=O)CCNC(C)=O)CC1,"inconclusive: 31.6 µM [activator, single point]",–
COC(=O)c1ccc(C(=O)OC)c(NC(=O)c2ccc(-c3ccccc3)s2)c1,–,inactive: 21.2% [at 46.1 µM]
C=CCn1c(O)c(C=NCCN2CCNCC2)c(=O)[nH]c1=O,–,inactive: -8.28%
COc1ccc(CC2S/C(=N/N=C/c3ccc(O)cc3)NC2=O)cc1 (centres undefined),–,inactive: 7.73%
COc1ccc(Cn2c(=O)c3cccnc3n(Cc3cccc(F)c3)c2=O)cc1,"inconclusive: 4.47 µM [inhibitor, single point]",–
Cc1cc([N+](=O)[O-])nn1Cc1ccc(C(=O)N/N=C/c2ccc(N(C)C)cc2)cc1,"inconclusive: 0.251 µM [inhibitor, full curve, poor fit]",–
O=C(CCCn1c(SCc2cccc([N+](=O)[O-])c2)nc2ccccc2c1=O)NCC1CCCO1 (centres undefined),"inconclusive: 25.1 µM [inhibitor, single point]",–
Nc1nn(S(=O)(=O)c2ccccc2)cc1-c1ccc([N+](=O)[O-])cc1,"inconclusive: 25.1 µM [inhibitor, single point]",–
COc1cc(C(=O)NCC(=O)NC(C)c2ccc(-n3ccnc3)cc2)cc(OC)c1OC (centres undefined),"inconclusive: 1.78 µM [activator, full curve, poor fit]",–
COc1cccc(C(=O)/C=C/Nc2ccc(S(=O)(=O)Nc3cnc4ccccc4n3)cc2)c1,"inconclusive: 10 µM [activator, partial curve, poor fit]",–

# From PubChem BioAssay AID540276 (National Center for Advancing Translational Sciences (NCATS), 2011)
